The results in this text go back to PubChem BioAssay AID330 (DTP/NCI, 2004).

The list does not hold the whole screen: it is rich in T/C values a quarter to a half above the control, in often repeated tests (any T/C) and in doses without a T/C. Further doses and runs are listed elsewhere. T/C: endpoint of the treated group in % of that of the vehicle group. Some doses have a count of surviving animals in place of a T/C: the source files T/C as zero there, which appears to mark a toxic dose or a test without result, not a measured value. Some doses without a T/C left all or most animals alive at the check, yet need not have been tolerated: the source hardly ever lists a survival T/C far under the control, and the zero likely stands for such cases as well. Counts of survivors are from the toxicity check (mostly the fifth day) where no day follows; animals may have died later. Schedule codes are those of the source, taken here to give the interval after Q, in days (D) or hours (H), and the number of doses after X. Some entries hold several experiments; the results are listed from low to high. Where survival is the endpoint, the PubChem record calls one and a half times the control and up active, and a quarter to a half above the control has no call in these data; cut-offs in other NCI protocols can differ.

For the test, the system named is P388 leukemia ip, CD2F1 mice, survival T/C. The experiment in a line: NCI In Vivo Anticancer Drug Screen. Data for tumor model P388 Leukemia (intraperitoneal) in CD2F1 (CDF1) mice. The settings on record: T/C endpoint: median survival time, higher T/C = longer survival.
[1] abbreviates: dose: 240.0 mg/kg/injection, schedule: Q01DX005 (ip), vehicle: saline with Tween-80.
[2] abbreviates: dose: 100.0 mg/kg/injection, schedule: Q01DX009 (ip), vehicle: saline with Tween-80.
[3] abbreviates: dose: 200.0 mg/kg/injection, schedule: Q01DX009 (ip), vehicle: saline with Tween-80.
The mark [4] stands for this setting: dose: 200.0 mg/kg/injection, schedule: Q01DX009 (ip), vehicle: saline.
[5] abbreviates: dose: 200.0 mg/kg/injection, schedule: Q01DX005 (ip), vehicle: saline with Tween-80.
Setting [6] is: dose: 50.0 mg/kg/injection, schedule: Q04DX003 (ip), vehicle: saline with Tween-80.

In the case of `COc1cccc2c1C(=O)c1c(O)c3c(c(O)c1C2=O)C[C@@](O)(c1csc(N)n1)C[C@@H]3OC1CC(N)C(O)C(C)O1` (stereo partly drawn), the T/C is, setting by setting: (dose: 1.56 mg/kg/injection, schedule: Q01DX009 (ip), vehicle: water) 137 % of control; (dose: 3.13 mg/kg/injection, schedule: Q01DX009 (ip), vehicle: water, evaluated on day 30) 140 % of control; (dose: 3.13 mg/kg/injection, schedule: Q01DX009 (ip), vehicle: water, evaluated on day 45) 145 % of control; (dose: 25.0 mg/kg/injection, schedule: Q01DX009 (ip), vehicle: water) 137 % of control; (dose: 25.0 mg/kg/injection, schedule: Q04DX003 (ip), vehicle: water) 125 % of control; (dose: 50.0 mg/kg/injection, schedule: Q04DX003 (ip), vehicle: water, evaluated on day 30) 125 % of control. The T/C (dose: 50.0 mg/kg/injection, schedule: Q04DX003 (ip), vehicle: water, evaluated on day 35) was 127 % of control and the T/C (dose: 100.0 mg/kg/injection, schedule: Q04DX003 (ip), vehicle: water) is 125 % of control. For the same compound, the survivor count (dose: 50.0 mg/kg/injection, schedule: Q01DX009 (ip), vehicle: water) is given as 5 of 6.
With `COc1cc(O)c(O)c(C(C)(C)C)c1`, under setting [1], the survivor count is reported as 6 of 6.
Consider `CS(=O)(=O)OCCF`, for which the survivor count is, setting by setting: (dose: 25.0 mg/kg/injection, schedule: Q01DX009 (ip), vehicle: saline with Tween-80) 2 of 6 and 4 of 6; (dose: 50.0 mg/kg/injection, schedule: Q01DX009 (ip), vehicle: saline with Tween-80) 0 of 6; (dose: 100.0 mg/kg/injection, schedule: Q01DX001 (ip), vehicle: saline with Tween-80) 0 of 6; under setting [2], 0 of 6; (dose: 200.0 mg/kg/injection, schedule: Q01DX001 (ip), vehicle: saline with Tween-80) 0 of 6; under setting [3], 0 of 6. In addition, the survivor count (dose: 400.0 mg/kg/injection, schedule: Q01DX001 (ip), vehicle: saline with Tween-80) is 0 of 6.
With `[N-]=[N+]=C1N=Nc2ccccc21`, the survivor count runs as follows: (dose: 6.25 mg/kg/injection, schedule: Q01DX005 (ip), vehicle: Klucel (hydroxypropylcellulose) (HPC)) 4 of 6; (dose: 12.5 mg/kg/injection, schedule: Q01DX005 (ip), vehicle: Klucel (hydroxypropylcellulose) (HPC)) 1 of 6; (dose: 25.0 mg/kg/injection, schedule: Q01DX005 (ip), vehicle: Klucel (hydroxypropylcellulose) (HPC)) 0 of 6; (dose: 50.0 mg/kg/injection, schedule: Q01DX005 (ip), vehicle: Klucel (hydroxypropylcellulose) (HPC)) 0 of 6; (dose: 100.0 mg/kg/injection, schedule: Q01DX005 (ip), vehicle: Klucel (hydroxypropylcellulose) (HPC)) 0 of 6; (dose: 200.0 mg/kg/injection, schedule: Q01DX005 (ip), vehicle: Klucel (hydroxypropylcellulose) (HPC)) 0 of 6.
With `Cc1nnc2c(N)nccn12`, the survivor count (dose: 400.0 mg/kg/injection, schedule: Q01DX001 (ip), vehicle: Klucel (hydroxypropylcellulose) (HPC)) is reported as 0 of 6.
As for `COc1ccc(S(=O)(=O)F)cc1NC(C)=O`, the survivor count (dose: 240.0 mg/kg/injection, schedule: Q01DX005 (ip), vehicle: Klucel (hydroxypropylcellulose) (HPC)) is on record as 1 of 6.
With `CCn1c(N)c(C(=S)NC)c(=O)n(CC)c1=O`, under setting [4], the survivor count is given as 6 of 6.
With `Clc1ncn[nH]1`, the survivor count (dose: 600.0 mg/kg/injection, schedule: Q01DX001 (ip), vehicle: Klucel (hydroxypropylcellulose) (HPC)) was 1 of 6.
For the compound `O=C(CCN1CCCCC1)c1ccccc1`, the survivor count runs as follows: under setting [2], 0 of 6; under setting [3], 0 of 6.
For the compound `O=C1C[CH]([Ge](=[O])[O][Ge](=[O])[CH]2CC(=O)NC(=O)N2)NC(=O)N1` (stereo not drawn), where the note is “dose: 60.0 mg/kg/injection, schedule: Q01DX005 (ip), vehicle: water”, the T/C is 133 % of control.
In the case of `O=C(Nc1ccc(N=Nc2ccc(S(=O)(=O)O)cc2)cc1)c1ccc(N=Nc2cc(S(=O)(=O)O)c3ccccc3c2O)cc1`, the survivor count (dose: 200.0 mg/kg/injection, schedule: Q01DX005 (ip), vehicle: saline) was 3 of 6.
Regarding `O=[N+]([O-])c1cnc(Sc2cncc[n+]2[O-])s1`, the survivor count (dose: 12.5 mg/kg/injection, schedule: Q01DX009 (ip), vehicle: Klucel (hydroxypropylcellulose) (HPC)) was 4 of 6; the survivor count (dose: 25.0 mg/kg/injection, schedule: Q01DX009 (ip), vehicle: Klucel (hydroxypropylcellulose) (HPC)) was 0 of 6; the survivor count (dose: 50.0 mg/kg/injection, schedule: Q01DX009 (ip), vehicle: Klucel (hydroxypropylcellulose) (HPC)) is on record as 0 of 6; the survivor count (dose: 100.0 mg/kg/injection, schedule: Q01DX009 (ip), vehicle: Klucel (hydroxypropylcellulose) (HPC)) was 0 of 6; the survivor count (dose: 200.0 mg/kg/injection, schedule: Q01DX009 (ip), vehicle: Klucel (hydroxypropylcellulose) (HPC)) is listed as 0 of 6.
On to `N#CCS(=O)(=O)c1cccc[n+]1[O-]`, for which the T/C under setting [5] was 132 % of control. For the setting “dose: 400.0 mg/kg/injection, schedule: Q01DX005 (ip), vehicle: saline with Tween-80”, the survivor count is listed as 3 of 6.
As for `CCC(C)C(=O)Nc1ccccc1-c1ccccc1` (stereo not drawn), the survivor count (dose: 100.0 mg/kg/injection, schedule: Q01DX009 (ip), vehicle: saline) was 6 of 6 and the survivor count under setting [4] is 6 of 6.
With `O=C(Nc1ccc(NC(=O)c2ccc(C3=NCCCN3)cc2)cc1)c1ccc(C2=NCCCN2)cc1`, the T/C is 131 % of control (dose: 25.0 mg/kg/injection, schedule: Q04DX003 (ip), vehicle: saline with Tween-80); 141 % of control (dose: 33.0 mg/kg/injection, schedule: Q04DX003 (ip), vehicle: saline with Tween-80); 145 % of control under setting [6]. In addition, the survivor count is 1 of 6 under setting [6]; 3 of 6 (dose: 75.0 mg/kg/injection, schedule: Q04DX003 (ip), vehicle: saline with Tween-80); 4 of 6 (dose: 100.0 mg/kg/injection, schedule: Q04DX003 (ip), vehicle: saline); 1 of 6 (dose: 200.0 mg/kg/injection, schedule: Q04DX003 (ip), vehicle: saline); 0 of 6 (dose: 400.0 mg/kg/injection, schedule: Q04DX003 (ip), vehicle: saline).
With `CC1OS(=O)(=O)CS(=O)(=O)OC1C` (stereo not drawn), under setting [1], the survivor count is 2 of 6.
On to `CC(=O)O[C@]12C=C[C@H](O1)[C@@H]1C(=O)NC(=O)[C@@H]12`, for which the survivor count is given as 2 of 6 (dose: 100.0 mg/kg/injection, schedule: Q04DX002 (ip), vehicle: Klucel (hydroxypropylcellulose) (HPC)); 0 of 6 (dose: 200.0 mg/kg/injection, schedule: Q04DX002 (ip), vehicle: Klucel (hydroxypropylcellulose) (HPC)); 0 of 6 (dose: 400.0 mg/kg/injection, schedule: Q04DX002 (ip), vehicle: Klucel (hydroxypropylcellulose) (HPC)).
`O=C1NC(=O)C2C(=O)NC(=O)C1C21CCc2ccccc21` (stereo not drawn): the survivor count under setting [1] is 6 of 6.
Turning to `CCCCN(N=O)C(C)=O`, the survivor count (dose: 400.0 mg/kg/injection, schedule: Q04DX002 (ip), vehicle: saline with Tween-80) is 5 of 6.
For the compound `C=CCC(CCC)(C(=O)Nc1ccc2nc(C)cc(N)c2c1)C(=O)Nc1ccc2nc(C)cc(N)c2c1`, the survivor count under setting [5] is 0 of 5.
As to `C=C=C(COC(C)=O)ON1CCC(C)CC1`, the survivor count (dose: 72.5 mg/kg/injection, schedule: Q01DX001 (ip), vehicle: saline) was 0 of 6; the survivor count (dose: 145.0 mg/kg/injection, schedule: Q01DX001 (ip), vehicle: saline) is listed as 0 of 6; the survivor count (dose: 290.0 mg/kg/injection, schedule: Q01DX001 (ip), vehicle: saline) is given as 1 of 6.
